# Results are given in words; binding and its absence hold for the method and conditions named. Binding seen in cells or lysates may run through a third protein. Where a sequence is shown, tags or fusion partners need not be part of it.
# B1: MYC-AKTIP (pCMV6-Entry-AKTIP-Myc-Flag) (protein, UniProt Q9H8T0 1-292)
# chain: MNPFWSMSTSSVRKRSEGEEKTLTGDVKTSPPRTAPKKQLPSIPKNALPITKPTSPAPAAQSTNGTHASYGPFYLEYSLLAEFTLVVKQKLPGVYVQPSYRSALMWFGVIFIRHGLYQDGVFKFTVYIPDNYPDGDCPRLVFDIPVFHPLVDPTSGELDVKRAFAKWRRNHNHIWQVLMYARRVFYKIDTASPLNPEAAVLYEKDIQLFKSKVVDSVKVCTARLFDQPKIEDPYAISFSPWNPSVHDEAREKMLTQKKPEEQHNKSVHVAGLSWVKPGSVQPFSKEEKTVAT
# Assays:
# [1] = target: GFP-tagged SEPT9 isoform E (human); experiment: pull-down; GFP-TRAP: 293T transfected with GFP-tagged ESCRT subunits or SEPT9 isoforms and AKTIP-Myc-Flag; lysis buffer 150mM NaCl, 50 mM Tris pH7.5, 1 mM EDTA, 1% glycerol, 1% NP40; magnetic agarose GFP-trap beads 10 minutes; Western blot with MYC antisera
# [2] = target: GFP-tagged SEPT9 isoform B (human); experiment: as above
binder,measurement,setting,value
B1,binding,[1],no binding
same,binding,[2],no binding

# — paper PMC8428793
